The list is a part of this screen's results and no random one: it is rich in T/C values a quarter to a half above the control, in often repeated tests (any T/C) and in doses without a T/C. Further doses and runs are listed elsewhere. T/C is the treated group as % of the vehicle group. Some entries give survivors of the animals treated and no T/C: the source files T/C as zero there, which appears to mark a toxic dose or a test without result, not a measured value. Some survivor counts are full or nearly so, which does not show that the dose was tolerated: the source hardly ever lists a survival T/C far under the control, and the zero likely stands for such cases as well. Counts of survivors are from the toxicity check (mostly the fifth day) where no day follows; animals may have died later. Schedule codes are those of the source, read here as Q, the interval in days (D) or hours (H), X, the number of doses. Marks such as (2×) say how often a value occurs here. Where survival is the endpoint, the PubChem record calls one and a half times the control and up active, and a quarter to a half above the control has no call in these data; cut-offs in other NCI protocols can differ.
System: BDF1 mice, B16 melanoma ip, median survival T/C
Assay: NCI In Vivo Anticancer Drug Screen. Data for tumor model B16 Melanoma (intraperitoneal) in B6D2F1 (BDF1) mice
Conditions: T/C endpoint: median survival time, higher T/C = longer survival
Outline: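 Tumor-bearing mice received test compound or vehicle. Survival or tumor size was then measured in both groups. The treated-group figure was divided by the control-group figure.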

[1] = dose: 25.0 mg/kg/injection, schedule: Q01DX009 (ip), vehicle: Klucel (hydroxypropylcellulose) (HPC)
[2] = dose: 100.0 mg/kg/injection, schedule: Q01DX009 (ip), vehicle: saline with Tween-80
[3] = dose: 200.0 mg/kg/injection, schedule: Q01DX009 (ip), vehicle: saline with Tween-80
[4] = dose: 400.0 mg/kg/injection, schedule: Q01DX009 (ip), vehicle: saline with Tween-80
[5] = dose: 100.0 mg/kg/injection, schedule: Q01DX009 (ip), vehicle: Klucel (hydroxypropylcellulose) (HPC)
[6] = dose: 200.0 mg/kg/injection, schedule: Q01DX009 (ip), vehicle: Klucel (hydroxypropylcellulose) (HPC)
[7] = dose: 50.0 mg/kg/injection, schedule: Q01DX009 (ip), vehicle: saline with Tween-80
[8] = dose: 50.0 mg/kg/injection, schedule: Q01DX009 (ip), vehicle: Klucel (hydroxypropylcellulose) (HPC)

## CC[C@@]1(O)C(=O)OCc2c1cc1n(c2=O)Cc2cc3cc(O)ccc3nc2-1
dose: 3.13 mg/kg/injection, schedule: Q01DX009 (ip), vehicle: other
  survivor count: 8 of 10
dose: 6.25 mg/kg/injection, schedule: Q01DX009 (ip), vehicle: other
  survivor count: 6 of 10

## FC(F)(F)C(=Cc1nc2ccccc2s1)C(F)(F)F
[1]
  survivor count: 10 of 10

## Nc1nc(N)c2nc(CNc3ccc(C(=O)NC(CCC(=O)O)C(=O)O)cc3)cnc2n1 (centres undefined)
dose: 0.06 mg/kg/injection, schedule: Q01DX009 (ip), vehicle: saline with Tween-80
  survivor count: 6 of 6 (2×)
dose: 0.13 mg/kg/injection, schedule: Q01DX009 (ip), vehicle: saline with Tween-80
  survivor count: 6 of 6
dose: 0.5 mg/kg/injection, schedule: Q01DX009 (ip), vehicle: saline with Tween-80
  survivor count: 5 of 6

## CCCSc1ncnc2nc[nH]c12
[2]
  survivor count: 2 of 6
[3]
  survivor count: 0 of 6
[4]
  survivor count: 0 of 6

## CCOC(=O)NC(C(=O)OC)C(=O)OC
[5]
  survivor count: 10 of 10

## CCCCN(CC)C(=S)S[Te](SC(=S)N(CC)CCCC)(SC(=S)N(CC)CCCC)SC(=S)N(CC)CCCC
[6]
  survivor count: 4 of 6

## CN(C)CCOc1ccccn1
[4]
  survivor count: 10 of 10

## CC(=O)Nc1ccc(N=Nc2c(O)c(S(=O)(=O)O)cc3cc(S(=O)(=O)O)ccc23)cc1
[7]
  survivor count: 10 of 10
[2]
  survivor count: 10 of 10

## Cc1c(Cl)cccc1NC(=O)Oc1cc(Cl)c(Cl)cc1Cl
[8]
  survivor count: 9 of 10
[5]
  survivor count: 10 of 10

## FC(F)(F)c1nc2nc(Cl)c(Cl)nc2[nH]1
[2]
  survivor count: 6 of 10

## C/C(=N\[N+](C)(C)C)c1ccc2ccccc2c1
[5]
  survivor count: 5 of 10

## O=C(NC1CCc2ccccc21)c1ccccc1 (centres undefined)
[7]
  survivor count: 10 of 10
[2]
  survivor count: 10 of 10
[3]
  survivor count: 10 of 10
[4]
  survivor count: 9 of 10

## COc1c(I)c2c(c(OC)c1OC)-c1ccc(OC)c(=O)cc1C(NC(C)=O)CC2 (centres undefined)
dose: 3.12 mg/kg/injection, schedule: Q01DX009 (ip), vehicle: Klucel (hydroxypropylcellulose) (HPC)
  T/C: 127 % of control
dose: 6.25 mg/kg/injection, schedule: Q01DX009 (ip), vehicle: Klucel (hydroxypropylcellulose) (HPC)
  T/C: 132 % of control
dose: 12.5 mg/kg/injection, schedule: Q01DX009 (ip), vehicle: Klucel (hydroxypropylcellulose) (HPC)
  survivor count: 9 of 10
[1]
  survivor count: 10 of 10

## CC(O)C(NC(=O)OC(C)(C)C)C(=O)O (centres undefined)
dose: 100.0 mg/kg/injection, schedule: Q01DX009 (ip), vehicle: saline
  T/C: 140 % of control

## Cc1cc(C)c(COCc2cc(C)c(C)cc2C)cc1C
dose: 200.0 mg/kg/injection, schedule: Q01DX009 (ip), vehicle: water
  survivor count: 6 of 6
dose: 400.0 mg/kg/injection, schedule: Q01DX009 (ip), vehicle: water
  survivor count: 4 of 6

## COC(=O)[C@H]1[C@H]2C[C@@H]3c4[nH]c5cc(OC)ccc5c4CCN3C[C@H]2C[C@@H](OC(=O)c2cc(OC)c(OC)c(OC)c2)[C@@H]1OC
dose: 1.56 mg/kg/injection, schedule: Q01DX009 (ip), vehicle: saline
  survivor count: 10 of 10
dose: 3.12 mg/kg/injection, schedule: Q01DX009 (ip), vehicle: saline
  survivor count: 10 of 10
dose: 6.25 mg/kg/injection, schedule: Q01DX009 (ip), vehicle: saline
  survivor count: 9 of 10
dose: 12.5 mg/kg/injection, schedule: Q01DX009 (ip), vehicle: saline
  survivor count: 10 of 10
dose: 25.0 mg/kg/injection, schedule: Q01DX009 (ip), vehicle: saline
  survivor count: 9 of 10

## COc1cc(C(=O)O)c(Br)cc1C
dose: 400.0 mg/kg/injection, schedule: Q04DX003 (ip), vehicle: Klucel (hydroxypropylcellulose) (HPC)
  survivor count: 10 of 10

## O=c1[nH]cc(F)c(=O)[nH]1.[Tl]
dose: 12.5 mg/kg/injection, schedule: Q01DX009 (ip), vehicle: water
  survivor count: 10 of 10
dose: 25.0 mg/kg/injection, schedule: Q01DX009 (ip), vehicle: water
  survivor count: 6 of 10
dose: 50.0 mg/kg/injection, schedule: Q01DX009 (ip), vehicle: water
  survivor count: 1 of 10
dose: 100.0 mg/kg/injection, schedule: Q01DX009 (ip), vehicle: water
  survivor count: 0 of 10

## ClC=P(c1ccccc1)(c1ccccc1)c1ccccc1
dose: 50.0 mg/kg/injection, schedule: Q04DX003 (ip), vehicle: saline with Tween-80
  survivor count: 10 of 10
[2]
  survivor count: 10 of 10
dose: 100.0 mg/kg/injection, schedule: Q04DX003 (ip), vehicle: saline with Tween-80
  T/C: 145 % of control
[3]
  survivor count: 10 of 10
dose: 200.0 mg/kg/injection, schedule: Q04DX003 (ip), vehicle: saline with Tween-80
  T/C: 142 % of control

## O=C(Nc1nncs1)c1cccs1
[4]
  survivor count: 10 of 10

## Clc1ccc2sc3c(c2c1)CCNC3
[6]
  survivor count: 0 of 10

## COc1c([N+](=O)[O-])cc(C(=O)O)cc1[N+](=O)[O-]
dose: 400.0 mg/kg/injection, schedule: Q01DX009 (ip), vehicle: Klucel (hydroxypropylcellulose) (HPC)
  survivor count: 1 of 10

## CCCCCCC(C)NCC(O)COc1cccc(C)c1 (centres undefined)
[1]
  survivor count: 9 of 10
[8]
  survivor count: 2 of 10

— PubChem BioAssay AID192 (DTP/NCI, 2004)
